Measurements from patent publication US20100298252A1, “METHODS AND COMPOSITIONS FOR OPHTHALMIC TREATMENT OF FUNGAL AND BACTERIAL INFECTIONS” (priority 2004, published 2010).
Some results were stated once for a whole list of compounds, not compound by compound.

Experiments:
Pseudomonas aeruginosa = experiment: Minimal Bactericidal Concentration, broth-dilution microtiter; format: cell-based; details: Ps. aeruginosa
Description: (§1) 307 (pub: Am. Soc. Microbiol. Williams and Wilkins, Baltimore 1970), incorporated herein by reference in its entirety.

Enterococcus faecalis = experiment: as above; format: cell-based; details: Ent. faecalis
Description: as §1

For neomycin, the “Decrease of MBC value when EDTA and neomycin combined vs individually administered” value (Pseudomonas aeruginosa) was “at least 75%” and the “Decrease of MBC value when EDTA and neomycin combined vs individually administered” value (Enterococcus faecalis) was “at least 75%”.
